# In PubChem BioAssay AID2551 (National Center for Advancing Translational Sciences (NCATS), 2010):
# By UniProt entry, the sequences of proteins in these tests, tags left out. Where a name states a change or a piece, a line headed by the entry shows the natural chain unless it says otherwise.
# UniProt P51450: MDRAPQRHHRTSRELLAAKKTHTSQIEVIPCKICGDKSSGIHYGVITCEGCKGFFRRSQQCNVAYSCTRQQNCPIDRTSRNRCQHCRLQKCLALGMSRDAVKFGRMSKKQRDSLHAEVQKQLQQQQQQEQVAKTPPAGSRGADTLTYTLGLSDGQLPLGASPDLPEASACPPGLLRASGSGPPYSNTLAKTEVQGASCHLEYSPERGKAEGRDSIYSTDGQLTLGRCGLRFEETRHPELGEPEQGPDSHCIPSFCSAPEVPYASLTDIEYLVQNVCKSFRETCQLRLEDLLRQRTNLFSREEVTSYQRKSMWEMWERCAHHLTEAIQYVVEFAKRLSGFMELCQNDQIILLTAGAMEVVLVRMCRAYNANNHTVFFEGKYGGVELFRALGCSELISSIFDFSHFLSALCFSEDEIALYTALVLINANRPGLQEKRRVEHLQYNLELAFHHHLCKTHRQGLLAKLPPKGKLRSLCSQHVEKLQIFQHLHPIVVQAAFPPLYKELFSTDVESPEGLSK
# Values joined by “and” are separate entries in the source; they are usually repeats but may differ in a detail not shown here. Equal values may be shown once. Hit rate of the full screen: of about 310,000 compounds, about 17,000 (5.5%) were called active. This list was built around the results that the source calls inconclusive (neither active nor inactive); the mix of calls is not that of the screen. The call rests on the fitted dose curve; in most records, active means well fitted inhibition curve with a large enough effect; inconclusive means small, poorly fitted or top-dose-only effect, or effect the other way; inactive means no such curve, though single readings can be large or run the other way. Where the call is inconclusive, the potency comes from a doubtful curve fit.
# Molecular target: Nuclear receptor ROR-gamma (Mus musculus) (UniProt P51450)
# Test: qHTS for inhibitors of ROR gamma transcriptional activity; further: nearly all actives have a fitted effect of over 60% in size
# Details: Drosophila S2 Gal4-RORgamma UAS-luciferase reporter, 20 h; activity change, negative = inhibition: at 53.6 µM (top of the series)
# Method in brief: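 ROR gamma transcriptional activity was tracked as Gal4-UAS luciferase output in stably transfected Drosophila Schneider cells, with compound added 1 hr before 700 uM copper sulfate induction and a 20 hr ambient-temperature incubation.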
# On the % scale 0 is the no-effect control and ±100 the full control effect; potency means the concentration at half of the fitted maximal effect.
SMILES,Potency,"activity change, negative = inhibition"
CCC(=Nc1ccccc1NC(C)=O)c1c(O)n(C)c(=O)n(C)c1=O,"inconclusive: 7.08 µM [activator, partial curve]",–
CC(C)c1oc(=O)cc2c1[C@@H](O)[C@H]1OC(=O)[C@@]3(C)CC[C@@H](O)[C@@]2(C)C13 (stereo partly specified),active: 20 µM,–
CCC1(CC)C(=O)NC(=O)N(C)C1=O,inactive,–
O=c1cccc2n1CC1CC2CN(CC(O)CN2CC3CC(C2)c2cccc(=O)n2C3)C1 (stereo unspecified),inactive,–
Cc1ccc(C)c(NC(=S)NC2CC3CCC(C2)N3Cc2ccco2)c1 (stereo unspecified),"inconclusive: 35.5 µM [inhibitor, single point]",–
CC(C)N1C(=S)SC(C)(C)C1n1oc(=O)n(-c2ccc(Cl)c(Cl)c2)c1=O (stereo unspecified),"inconclusive: 3.55 µM [activator, single point]",–
CN(C)C(=O)O/N=C(\N)COc1ccc(C(C)(C)C)cc1,"inconclusive: 1 µM [inhibitor, partial curve, poor fit]",–
CCC1CN2CCC1CC2C(O)c1ccnc2ccccc12 (stereo unspecified),inactive,–
C[C@H]1C(=O)O[C@@H]2CCN3CC=C(COC(=O)[C@@](C)(O)[C@@]1(C)O)[C@H]23,inactive,–
O=C(c1cc(C(=O)NCc2ccccc2)c(=O)n(Cc2ccccc2)c1)c1cc(Cl)ccc1O,"inconclusive: 3.16 µM [activator, partial curve]",–
CNC(=O)[C@@H]1C[C@H]1[C@@H](NP(=O)(c1ccccc1)c1ccccc1)c1ccccc1,"inconclusive: 15.8 µM [inhibitor, single point]",–
CCCOc1ccc(N2C(=O)CC(N3CCC(O)(c4cccc(C(F)(F)F)c4)CC3)C2=O)cc1 (stereo unspecified),"inconclusive: 11.2 µM [activator, partial curve]",–
CN1CCC(O)(c2cccs2)C(C(=O)c2cccs2)C1 (stereo unspecified),active: 3.98 µM,–
C[C@@H](Cc1cccc(C(F)(F)F)c1)NCCCc1ccccc1,active: 22.4 µM,–
CN1CSC(=S)N(C)C1,active: 1.58 µM and active: 10 µM,–
COc1ccc(C(C#N)N2CCOCC2)cc1 (stereo unspecified),"inconclusive: 2.82 µM [activator, full curve]",–
COC(=O)C(O)(c1ccc(NC(=O)NC2CCCCC2)cc1)C(F)(F)F (stereo unspecified),"inconclusive: 5.01 µM [activator, partial curve]",–
COc1nc2ccccc2nc1N1CCN(C)CC1,inactive,–
C=C1[C@@H]2C[C@@]3([C@H]1O)[C@H]1C[C@@H]4[C@@]5(C)CC[C@H](O)[C@]4([C@H]1N(CC)C5)[C@H]3C[C@H]2O,inactive,–
CN(C)c1ccc(/C=C/C=C2/C(=O)NC(=O)N(c3ccccc3)C2=O)cc1,"inconclusive: 7.08 µM [activator, partial curve]",–
O=C1C=CC(=O)C=C1,active: 11.2 µM,–
CC(C)(C)c1nc(N2CCN(C(=O)c3ccco3)CC2)c2nnn(Cc3ccccc3Cl)c2n1,"inconclusive: 0.112 µM [inhibitor, full curve, poor fit]",–

# A few values from above.
# Value for CC(C)N1C(=S)SC(C)(C)C1n1oc(=O)n(-c2ccc(Cl)c(Cl)c2)c1=O (stereo unspecified) under Potency: inconclusive: 3.55 µM [activator, single point]
# Value for CCCOc1ccc(N2C(=O)CC(N3CCC(O)(c4cccc(C(F)(F)F)c4)CC3)C2=O)cc1 (stereo unspecified) under Potency: inconclusive: 11.2 µM [activator, partial curve]
# Value for C[C@@H](Cc1cccc(C(F)(F)F)c1)NCCCc1ccccc1 under Potency: active: 22.4 µM
# Value for COc1nc2ccccc2nc1N1CCN(C)CC1 under Potency: inactive
# Value for O=C(c1cc(C(=O)NCc2ccccc2)c(=O)n(Cc2ccccc2)c1)c1cc(Cl)ccc1O under Potency: inconclusive: 3.16 µM [activator, partial curve]

# The listing continues.

SMILES,Potency,"activity change, negative = inhibition"
Cc1c(C(c2ccccc2Cl)c2c(O)c3ccccc3oc2=O)c(=O)n(-c2ccccc2)n1C (stereo unspecified),"inconclusive: 11.2 µM [activator, partial curve]",–
CO[C@@H](COC(N)=O)C1=C(N2CC2)C(=O)C(C)=C(N2CC2)C1=O,"inconclusive: 12.6 µM [inhibitor, partial curve, poor fit]",–
CC(C)(C)c1csc(NC(=O)Nc2ccccc2)n1,"inconclusive: 1 µM [activator, partial curve, poor fit]",–
CCC(C)OC(=O)c1c(N)n(Cc2cccs2)c2nc3ccccc3nc12 (stereo unspecified),"inconclusive: 25.1 µM [inhibitor, single point]",–
CCN1C(=O)N(CC)C(=O)C2(Cc3ccccc3N3CCN(c4ccccc4)CC32)C1=O (stereo unspecified),inactive,–
CC/C(=N\NC(=O)c1ccccc1)c1c(O)n(Cc2ccccc2)c(=O)[nH]c1=O,"inconclusive: 35.5 µM [inhibitor, single point]",–
O=c1[nH]c(O)c(N=Nc2ccc3c(c2)OCCO3)c(=O)[nH]1,"inconclusive: 20 µM [inhibitor, partial curve, poor fit]",–
COc1cccc(OC)c1C1=NCC(=O)Nc2c1oc1ccc(Br)cc21,inactive,–
CN(C)C(=O)Oc1ccc(Cl)c2ccccc12,"inconclusive: 25.1 µM [activator, single point]",–
Cc1c(O)c(O)cc2c1CC=C1[C@]3(C)CC[C@]4(C)CC[C@@](C)(C(=O)O)CC4[C@]3(C)CC[C@]12C (stereo partly specified),"inconclusive: 35.5 µM [inhibitor, single point]",–
CCCCC/C=C\C/C=C\C/C=C\C/C=C\CCCC(=O)NC(C)C(=O)O (stereo unspecified),inactive,–
CCN(CC)P(=O)(Nc1ccc([N+](=O)[O-])cc1)c1c(C)nn(CCC#N)c1NC(=O)c1ccc(Cl)cc1Cl (stereo unspecified),"inconclusive: 15.8 µM [activator, single point]",–
COc1ccc(N2C(=O)NC(=O)/C(=C/c3ccc4c(c3)Cc3ccccc3-4)C2=O)cc1,"inconclusive: 7.94 µM [inhibitor, partial curve, poor fit]",–
C[C@@]12CCC(=O)C=C1C=C[C@H]1[C@H]3CC[C@](O)(CCC(=O)O)[C@]3(C)CC[C@@H]12,–,inactive: -1.42% [at 2.98 µM]
C/C=C(\C)C(=O)N[C@@H](c1ccccc1)[C@@H](O)C(=O)O[C@H]1C[C@@]2(O)[C@@H](OC(=O)c3ccccc3)C3[C@](C)(C(=O)[C@H](OC(C)=O)C(=C1C)C2(C)C)[C@H](O)C[C@H]1OC[C@@]31OC(C)=O (stereo partly specified),"inconclusive: 4.47 µM [activator, full curve, poor fit]",–
CC1CCN(CC#CCOc2ccc(Cl)cc2)CC1,inactive,–
CN(C)C(=O)Cl,inactive,–
COc1ccc2cc1Oc1ccc(cc1)C[C@H]1c3cc(c(OC)cc3CCN1C)Oc1c(OC)c(OC)cc3c1[C@H](C2)N(C)CC3,"inconclusive: 22.4 µM [inhibitor, single point] and inconclusive: 22.4 µM [inhibitor, partial curve]",–
COc1ccc(C2CC(c3c(O)n(CCc4ccccc4)c(=O)[nH]c3=O)=NN2)cc1OC (stereo unspecified),inactive,–
CC1CC2OC2/C=C\C=C/C(=O)Cc2c(Cl)c(O)cc(O)c2C(=O)O1 (stereo unspecified),active: 7.94 µM,–
CCc1ccc(N2C(=O)NC(=O)/C(=C/c3cccn3CCOc3ccc(C(C)CC)cc3)C2=O)cc1 (stereo unspecified),active: 0.794 µM,–
C[C@]12CC[C@@H]3c4cc(O)c(O)cc4CC[C@H]3[C@@H]1CC[C@@H]2O,active: 12.6 µM,–

SMILES,Potency,"activity change, negative = inhibition"
O=Cc1cn(Cc2ccccc2F)c2ccccc12,active: 2 µM,–
N#CC1(c2ccccc2)CCN(C2CC(=O)N(c3ccc(F)cc3)C2=O)CC1 (stereo unspecified),"inconclusive: 11.2 µM [activator, partial curve]",–
CC(C)NS(=O)(=O)c1ccc(OCC(=O)N2CCN(C)CC2)cc1,"inconclusive: 25.1 µM [inhibitor, single point]",–
S=P(Nn1cnnc1)(c1ccc(Br)cc1)c1ccc(Br)cc1,"inconclusive: 35.5 µM [inhibitor, single point]",–
O=C1C2CCCN2C(c2cccnc2)N1c1nccs1 (stereo unspecified),"inconclusive: 14.1 µM [inhibitor, single point]",–
c1ccc(CC2CCCCN2)cc1 (stereo unspecified),"inconclusive: 35.5 µM [inhibitor, single point]",–
CCc1nnc(NC(=O)CSc2ccc(-c3ccco3)nn2)s1,"inconclusive: 11.2 µM [activator, single point]",–
Cc1cccc(OCCn2c(=O)oc3ccc(C)cc32)c1,"inconclusive: 11.2 µM [activator, partial curve]",–
CN1CC[C@@]2(C)c3cc(O)ccc3N(C)C2O1 (stereo partly specified),"inconclusive: 14.1 µM [inhibitor, single point]",–
OC[P+](CO)(CO)CO,inactive,–
CC1CCCCC1n1c(-c2cccnc2)n[nH]c1=S (stereo unspecified),active: 10 µM,–
COC(=O)Cc1cc(=O)n(-c2ccccc2)[nH]1,"inconclusive: 0.158 µM [inhibitor, full curve, poor fit]",–
Clc1ccc(C(c2ccc(Cl)cc2)n2cc[n+](CC(OCc3ccc(Cl)cc3Cl)c3ccc(Cl)cc3Cl)c2)cc1 (stereo unspecified),"inconclusive: 3.16 µM [inhibitor, single point]",–
O=C1/C(=C/c2cccnc2)SC(=NCc2ccccc2)N1Cc1ccccc1,"inconclusive: 4.47 µM [inhibitor, partial curve, poor fit]",–
C=C(C)C1Cc2c(ccc3c2OC2COc4cc(OC)c(OC)cc4C2C3=O)O1 (stereo unspecified),active: 0.0355 µM,–
CN(c1ccc(OCC(=O)N2CCN(C/C=C/c3ccccc3)CC2)cc1)S(=O)(=O)c1cccs1,"inconclusive: 14.1 µM [activator, partial curve]",–
CCN1CCN(S(=O)(=O)c2ccc(Cl)c(C(=O)Nc3ccc(C(=O)N(CC)CC)cc3)c2)CC1,"inconclusive: 12.6 µM [activator, single point]",–
CCCCNC(=O)Nc1ccc(C(O)(C(=O)OC)C(F)(F)F)cc1 (stereo unspecified),"inconclusive: 5.62 µM [inhibitor, single point]",–
N#CC(C#N)=C(C#N)c1ccc(Nc2ccccc2)cc1,"inconclusive: 35.5 µM [inhibitor, single point]",–
N#CN=C1SCCN1Cc1ccc(Cl)nc1,inactive,–
Cc1ccc(/C=C2\C(=O)NC(=O)N(CCc3ccc(F)cc3)C2=O)o1,"inconclusive: 35.5 µM [inhibitor, single point]",–
Cc1cc(OC(=O)c2cccs2)c2c3c(c(=O)oc2c1)CCCC3,"inconclusive: 11.2 µM [activator, partial curve]",–
